Laboratory results from paper PMC5015840.
These are yes or no findings as the source states them, for the method shown. In cells and extracts the contact can be indirect. A result given as binding can be weak or reduced; the word gives no strength. Tags and fused reporters may be left off the sequences shown.

Target: OsIAA10, luciferase-fragment fusion of the LCI assay (rice)
Test: split reporter; firefly luciferase complementation imaging (LCI) in N. benthamiana leaves, 3 days after agroinfiltration, 0.2 mM luciferin

B1: RDV P2, luciferase-fragment fusion of the LCI assay (protein, UniProt Q18MZ3 1-1116)
chain: MAYPNDVRNVWDVYNVFRDVPNREHLIRDIRNGLVTVRNLTNMLTNMERDDQLIIAQLSNMMKSLSIGVEKAQNELSKLKTTDADRAAVLAAYQTSVLNIERNTMLLTGYFKQLVLDLTGYVGASVYPILPFMITGDQSMMVDSIKINMKNVFDDKHEQEIVLPIHPACFVSTITEDTSSVVYADGDELYSVHVRHATMTMYVNVLGETVETRQLSMIGDSIVPDDFAPSLLILRFSQDSVGEVFYLSHDNMKKFLGYGLEYTDKYSIFDVTRRVSTTRNKIPDGFCSVDGVPYLDGWFIYQPSGISADSNICAIYNSYVLDTLRYITECEVDTLRSVYDQTSSTAFSKTDVLTSSLLTMQSNISALSAATPQLANDVITFDSTDLLSLGTVLTVSNEFTADDTILSTSLAGHCQVDYSEGSPQDKSMSISVSCDSSQLASSTVHSYSADILGHGLKGDRNMNLMINVPGLMNPQKVTVDYVYSDGYKLNFASVVAPGAPFWINATLQLSVSPSAHNMLSKLTPLDNDACPGLKAQANTPVLVSMTINLDDATPALGGEVIQNCVFKIHHGDDVYSFVTDFDVISYTSTSGTNCLKLISSVDITSQLPSDMVIYVMNGSPDAAFISGDSVNMSSVDWHQSTSQTVGNYVYTTMKAYWNVTSYDVEARPYTTYVPGKVNFTAVEHADVFVDDYNTGVNSYVIVNSRIYYKGTPLYIEVPSGSFIKVSYFTSPLKNPTVDTYNAEISRNSAYLIKANASLDSVAAMLNNISNRIDAMERLMEPTRAQQIAGVVSSIGGVISLGMPLLGAIVVTIGTIISIADPDKQGIDYHSVANAFMSWCQYAAVCRYEYGLLKRGDEKLDVLSFMPKRVVSDFKNKPDVISLPELGESVLRGSSTDYLDTGINIIYNDMQLLGQGKLSDWLNKTVSKVENNAANFFERNLDKSLANKEVLPMHARVEITQTEKIGDVYRTTILYTGINEGSYLGGDVFASRLGDKNILRMNGFESGPGRFKAIVESTTEVGNFRVVDWTVSGMSRYEIYAAAGEVYPSKDPSHADVQLLYESIVRDLTTRDGSFVLKHHDVLLLPGQLDAFEELIIKNASNYQYAFIGSNCSKLCA
Q: B1 was tested. Which binding did it give?
A: The binding was “binds”.
